Article PMC5444011
No constants are given. Whether binding was seen depends on the method and setting. Binding seen in cells or lysates may run through a third protein. A result given as binding can be weak or reduced; the word gives no strength.

B1: SAM50 (mouse, endogenous in MEFs) (protein, UniProt Q8BGH2 1-469)
chain: MGTVHARSLEPLPSSGTDFGALGEEAEFVEVEPEAKQEILENKDVVVQHVHFDGLGRTKDDIIICEIGEVFKAKNLIEVMRRSHEAREKLLRLGIFRQVDVLIDTCHGEDALPNGLDVTFEVTELRRLTGSYNTMVGNNEGSMVLGLKLPNLLGRAEKVTFQFSYGTKETSYGLSFFKPQPGNFERNFSVNLYKVTGQFPWSSLRETDRGVSAEYSFPLWKTSHTVKWEGVWRELGCLSRTASFAVRKESGHSLKSSLSHAMVIDSRNSSILPRRGALFKVNQELAGYTGGDVSFIKEDFELQLNKPLALDSVFSTSLWGGMLVPIGDKPSSIADRFYLGGPTSVRGFSMHSIGPQSEGDYLGGEAYWAGGLHLYTPLPFRPGQGGFGELFRTHFFLNAGNLCNLNYGEGPKAHIRKLAECIRWSYGAGVVLRLGNIARLELNYCIPMGVQGGDRICDGVQFGAGIRFL
B2: SAM50 (human, endogenous in HeLa) (protein, UniProt Q9Y512 1-469)
chain: MGTVHARSLEPLPSSGPDFGGLGEEAEFVEVEPEAKQEILENKDVVVQHVHFDGLGRTKDDIIICEIGDVFKAKNLIEVMRKSHEAREKLLRLGIFRQVDVLIDTCQGDDALPNGLDVTFEVTELRRLTGSYNTMVGNNEGSMVLGLKLPNLLGRAEKVTFQFSYGTKETSYGLSFFKPRPGNFERNFSVNLYKVTGQFPWSSLRETDRGMSAEYSFPIWKTSHTVKWEGVWRELGCLSRTASFAVRKESGHSLKSSLSHAMVIDSRNSSILPRRGALLKVNQELAGYTGGDVSFIKEDFELQLNKQLIFDSVFSASFWGGMLVPIGDKPSSIADRFYLGGPTSIRGFSMHSIGPQSEGDYLGGEAYWAGGLHLYTPLPFRPGQGGFGELFRTHFFLNAGNLCNLNYGEGPKAHIRKLAECIRWSYGAGIVLRLGNIARLELNYCVPMGVQTGDRICDGVQFGAGIRFL
B3: GRA7 (Toxoplasma gondii parasite protein) (protein, UniProt O00933 27-236)
chain: ATASDDELMSRIRNSDFFDGQAPVDSLRPTNAGVDSKGTDDHLTTSMDKASVESQLPRREPLETEPDEQEEVHFRKRGVRSDAEVTDDNIYEEHTDRKVVPRKSEGKRSFKDLLKKLALPAVGMGASYFAADRLVPELTEEQQRGDEPLTTGQNVGTVLGFAALAAAAAFLGMGLTRTYRHFSPRKNRSRQPALEQEVPESGEDGEDARQ

Assays:
[1] = biological target: N-terminally HA-tagged MAF1b exogenously expressed in mouse embryonic fibroblasts (Toxoplasma gondii); experiment: co-IP; anti-HA beads with lysates of MEFs ± HA-MAF1b as for the first IPs; low-pH elution; Western blot
[2] = biological target: N-terminally HA-tagged MAF1b expressed off the MAF1b promoter in type I RH tachyzoites (Toxoplasma gondii); experiment: co-IP; anti-HA beads with lysates of HeLa cells infected 16 to 24 h with RH::NHA-MAF1b, RH::MAF1b-CHA or parental RH (or uninfected); low-pH elution; Western blot

| Binder | binding [1] | binding [2] |
| --- | --- | --- |
| B1 | binds |  |
| B2 |  | binds |
| B3 |  | no binding |
